Values quoted from earlier work, collected in patent US8394845B2, “Method of using combination preparation comprising angiotensin-II-receptor blocker and HMG-CoA reductase inhibitor” (Hanall Biopharma Co., Ltd., priority 2006, dated 2013).

Amino acid sequences for entries named in this document (tags omitted).
UniProt P08183, whole entry: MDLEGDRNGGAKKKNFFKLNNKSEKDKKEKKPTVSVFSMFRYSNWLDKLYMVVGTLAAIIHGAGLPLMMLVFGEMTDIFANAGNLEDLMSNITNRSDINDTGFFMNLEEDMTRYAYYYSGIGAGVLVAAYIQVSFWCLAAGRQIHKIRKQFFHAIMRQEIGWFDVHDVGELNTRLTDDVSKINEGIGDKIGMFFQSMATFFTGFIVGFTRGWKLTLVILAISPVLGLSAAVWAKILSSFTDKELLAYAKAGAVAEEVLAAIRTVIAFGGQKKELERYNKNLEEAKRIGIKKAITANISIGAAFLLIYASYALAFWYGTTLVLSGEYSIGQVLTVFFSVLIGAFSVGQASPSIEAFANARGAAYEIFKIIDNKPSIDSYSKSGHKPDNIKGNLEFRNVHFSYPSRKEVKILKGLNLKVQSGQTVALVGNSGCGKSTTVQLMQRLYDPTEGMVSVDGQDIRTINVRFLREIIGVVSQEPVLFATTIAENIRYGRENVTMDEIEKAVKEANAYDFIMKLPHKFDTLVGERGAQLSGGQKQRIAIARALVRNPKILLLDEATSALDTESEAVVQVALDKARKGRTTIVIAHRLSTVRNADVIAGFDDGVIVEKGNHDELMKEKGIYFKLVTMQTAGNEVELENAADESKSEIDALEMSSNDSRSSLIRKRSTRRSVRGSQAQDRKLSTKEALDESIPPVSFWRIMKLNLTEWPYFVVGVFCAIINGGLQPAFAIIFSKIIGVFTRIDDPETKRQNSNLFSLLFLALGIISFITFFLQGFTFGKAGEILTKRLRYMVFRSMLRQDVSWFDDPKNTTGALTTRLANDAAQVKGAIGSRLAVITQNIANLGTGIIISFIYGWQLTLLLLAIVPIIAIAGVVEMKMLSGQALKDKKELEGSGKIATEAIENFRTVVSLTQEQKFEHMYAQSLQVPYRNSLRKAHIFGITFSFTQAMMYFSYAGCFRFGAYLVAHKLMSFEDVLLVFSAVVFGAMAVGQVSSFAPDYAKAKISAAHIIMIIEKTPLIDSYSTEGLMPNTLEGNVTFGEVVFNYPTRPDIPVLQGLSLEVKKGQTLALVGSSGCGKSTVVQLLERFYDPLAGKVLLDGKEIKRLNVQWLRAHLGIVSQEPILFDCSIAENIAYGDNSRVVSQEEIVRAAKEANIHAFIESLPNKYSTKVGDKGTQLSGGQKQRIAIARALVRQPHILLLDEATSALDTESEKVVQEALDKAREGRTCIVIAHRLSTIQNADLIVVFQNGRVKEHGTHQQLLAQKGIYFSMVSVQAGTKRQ

Biological target: P-Glycoprotein transporter (Homo sapiens, UniProt P08183)
Settings: reported by Pailwal et al

Compound: CC(C)c1c(C(=O)Nc2ccccc2)c(-c2ccccc2)c(-c2ccc(F)cc2)n1CC[C@@H](O)C[C@@H](O)CC(=O)O [atorvastatin]
- substrate of P-Glycoprotein transporter: substrates of P-Glycoprotein transporter
